Data published in patent publication US20220403022A1.
Substitutions are numbered along the chain they refer to. No constants are given. Whether binding was seen depends on the method and setting. Some results given as binding are weak or reduced against the parent protein; the word gives no strength.

B1: 3963H03-12 (antibody, human IgG1, kappa, V domains shown)
VH: QVQLVQSGSELKKPGASVKVSCKASGYTFTSYPMNWVRQAPGQGLEWMGWINTNTGNPTYAQGFTGRFVFSLDTSVSTAYLQISSLKAEDTAVYYCARVGGYSVDEYAFDVWGQGTLVTVSS
VL: DIQLTQSPSFLSASVGDRVTITCRASQGISSYLAWYQQKPGKAPKLLIYAASTLQSGVPSRFSGSGSGTEFTLTISSLQPEDFATYYCQQLSSYPTFGGGTKVEIKR
B2: 7729G05 (antibody, V domains shown)
VH: B1 VH with Y102F, S103T, D105P, V111I, L117T
VL: DIRLTQSPSFLSASVGDRVTITCRASQGISSYLAWYQQKPGKAPKLLIYAASTLQSGVPSRFSGSGSGTEFTLTISSLQPEDFATYYCGQVMRYPAFGGGTKVEIK
B3: 7728B03 (antibody, V domains shown)
VH: B1 VH with V2M, V99T, A108S, V111I, L117T
VL: B2 VL with R3Q, G89H, V91T, M92I, R93F, Y94R, A96T

What was measured:
[1] = target: cynomolgus monkey TIGIT on primary T cells (cynomolgus monkey); assay: flow cytometry on primary CD3+ T cells
[2] = target: His-tagged cynomolgus monkey TIGIT (cynomolgus monkey); assay: BIACORE affinity analysis

Binder	binding [1]	binding [2]
B1	binds	–
B2	–	binds
B3	–	binds
